## Percent effect of library compounds

By UniProt entry, the sequences of proteins in these tests, tags left out. Residues count along the entry.
UniProt P9WNZ1, whole entry: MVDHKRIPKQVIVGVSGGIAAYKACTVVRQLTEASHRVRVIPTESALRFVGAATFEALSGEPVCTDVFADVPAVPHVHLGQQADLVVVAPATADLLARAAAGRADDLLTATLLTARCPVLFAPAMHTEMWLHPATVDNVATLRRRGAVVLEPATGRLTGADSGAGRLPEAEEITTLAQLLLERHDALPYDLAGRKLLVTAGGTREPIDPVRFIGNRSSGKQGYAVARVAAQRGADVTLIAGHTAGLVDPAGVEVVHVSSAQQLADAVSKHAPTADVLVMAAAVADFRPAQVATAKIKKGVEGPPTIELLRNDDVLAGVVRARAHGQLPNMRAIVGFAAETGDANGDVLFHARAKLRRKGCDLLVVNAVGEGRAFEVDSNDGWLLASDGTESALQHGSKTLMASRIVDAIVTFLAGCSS
UniProt I6X8D2, whole entry: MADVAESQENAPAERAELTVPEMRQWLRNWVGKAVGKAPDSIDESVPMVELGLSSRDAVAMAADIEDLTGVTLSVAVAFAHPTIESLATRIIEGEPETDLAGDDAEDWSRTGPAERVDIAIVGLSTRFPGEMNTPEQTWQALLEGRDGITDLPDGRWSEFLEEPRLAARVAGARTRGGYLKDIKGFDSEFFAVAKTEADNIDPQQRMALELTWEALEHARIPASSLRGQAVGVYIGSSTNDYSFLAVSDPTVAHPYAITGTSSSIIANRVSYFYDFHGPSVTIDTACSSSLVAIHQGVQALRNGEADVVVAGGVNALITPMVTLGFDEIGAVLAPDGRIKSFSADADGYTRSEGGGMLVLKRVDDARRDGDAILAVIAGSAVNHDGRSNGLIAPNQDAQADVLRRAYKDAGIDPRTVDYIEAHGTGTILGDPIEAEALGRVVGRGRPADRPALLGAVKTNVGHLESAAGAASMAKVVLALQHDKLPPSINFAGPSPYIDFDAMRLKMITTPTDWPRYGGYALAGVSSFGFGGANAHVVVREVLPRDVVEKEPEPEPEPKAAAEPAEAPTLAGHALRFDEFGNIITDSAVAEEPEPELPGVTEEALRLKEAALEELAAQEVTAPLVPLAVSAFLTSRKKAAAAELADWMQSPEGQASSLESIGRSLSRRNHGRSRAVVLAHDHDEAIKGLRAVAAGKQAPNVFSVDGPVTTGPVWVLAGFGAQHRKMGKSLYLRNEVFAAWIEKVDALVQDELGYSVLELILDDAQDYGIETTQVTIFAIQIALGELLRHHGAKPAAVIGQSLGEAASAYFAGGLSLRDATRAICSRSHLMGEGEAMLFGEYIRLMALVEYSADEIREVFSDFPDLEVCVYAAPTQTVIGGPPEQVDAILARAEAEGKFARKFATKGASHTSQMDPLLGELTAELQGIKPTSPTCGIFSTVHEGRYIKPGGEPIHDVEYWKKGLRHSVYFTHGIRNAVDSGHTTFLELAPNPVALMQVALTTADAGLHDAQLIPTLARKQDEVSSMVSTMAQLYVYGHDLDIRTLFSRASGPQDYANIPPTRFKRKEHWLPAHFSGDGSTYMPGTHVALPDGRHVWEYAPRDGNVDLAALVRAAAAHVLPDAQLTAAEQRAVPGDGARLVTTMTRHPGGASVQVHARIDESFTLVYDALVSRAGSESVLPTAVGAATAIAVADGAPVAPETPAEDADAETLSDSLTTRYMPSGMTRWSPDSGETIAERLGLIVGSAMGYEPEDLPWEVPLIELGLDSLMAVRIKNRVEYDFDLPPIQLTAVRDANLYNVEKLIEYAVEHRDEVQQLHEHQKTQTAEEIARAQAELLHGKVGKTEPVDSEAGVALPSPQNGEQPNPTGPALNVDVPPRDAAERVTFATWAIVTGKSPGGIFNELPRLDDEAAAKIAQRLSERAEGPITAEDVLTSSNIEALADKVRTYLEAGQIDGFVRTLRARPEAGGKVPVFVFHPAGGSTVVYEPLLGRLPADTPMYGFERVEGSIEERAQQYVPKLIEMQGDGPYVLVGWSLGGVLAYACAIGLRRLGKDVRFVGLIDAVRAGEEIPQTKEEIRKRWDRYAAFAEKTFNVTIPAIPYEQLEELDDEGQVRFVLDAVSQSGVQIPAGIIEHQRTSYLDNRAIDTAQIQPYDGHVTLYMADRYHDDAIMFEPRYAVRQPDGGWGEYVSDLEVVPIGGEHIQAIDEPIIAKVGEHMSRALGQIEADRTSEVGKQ
UniProt P9WPC5, whole entry: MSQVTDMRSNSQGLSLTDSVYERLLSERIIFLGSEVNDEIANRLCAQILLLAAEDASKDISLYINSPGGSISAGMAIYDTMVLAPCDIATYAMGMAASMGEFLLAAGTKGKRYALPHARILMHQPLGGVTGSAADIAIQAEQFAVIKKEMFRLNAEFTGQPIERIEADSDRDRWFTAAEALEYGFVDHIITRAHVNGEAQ
UniProt P9WPC3, whole entry partner: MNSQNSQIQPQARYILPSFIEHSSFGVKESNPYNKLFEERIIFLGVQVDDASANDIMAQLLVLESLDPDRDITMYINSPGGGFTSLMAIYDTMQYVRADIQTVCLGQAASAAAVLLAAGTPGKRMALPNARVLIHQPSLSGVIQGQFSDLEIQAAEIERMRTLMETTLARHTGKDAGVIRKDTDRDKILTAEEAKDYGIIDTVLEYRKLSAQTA
UniProt Q4DA54, 1-478: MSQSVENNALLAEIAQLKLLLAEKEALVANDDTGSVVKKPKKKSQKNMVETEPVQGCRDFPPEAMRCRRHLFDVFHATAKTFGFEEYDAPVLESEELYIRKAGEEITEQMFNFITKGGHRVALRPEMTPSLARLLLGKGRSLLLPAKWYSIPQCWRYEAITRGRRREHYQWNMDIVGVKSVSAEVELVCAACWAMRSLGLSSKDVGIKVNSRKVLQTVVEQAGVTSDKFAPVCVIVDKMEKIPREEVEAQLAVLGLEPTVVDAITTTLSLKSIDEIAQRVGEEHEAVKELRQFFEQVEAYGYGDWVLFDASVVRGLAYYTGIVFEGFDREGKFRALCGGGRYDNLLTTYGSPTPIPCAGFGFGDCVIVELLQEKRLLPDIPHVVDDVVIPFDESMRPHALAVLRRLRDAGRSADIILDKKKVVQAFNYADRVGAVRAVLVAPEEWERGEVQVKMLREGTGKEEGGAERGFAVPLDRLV

A: 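Coenzyme A biosynthesis protein CoaBC, Mycobacterium tuberculosis (UniProt P9WNZ1). Enzyme assay of CoaBC with a phosphate dye (Biomol Green) read at 650 nm. Compounds at 30 µM. Higher reads as stronger inhibition, judged from the few compounds that gave an IC50. Most strong results did not repeat in a second test. Size under these conditions: about 67,000 compounds, about 40 of them at 50% or above in at least one test.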
B: 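Cell assay of Leishmania donovani living inside macrophages; the read-out is not stated. Tested at 30 µM. Direction is inferred from retests: higher values go with stronger inhibition. Size under these conditions: about 69,000 compounds, about 1,000 of them at 50% or above in at least one test.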
C: 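Enzyme assay of the thioesterase domain of polyketide synthase 13; the read-out is not stated. Target: Polyketide synthase Pks13, Mycobacterium tuberculosis (UniProt I6X8D2). Concentration: 30 µM. Higher reads as stronger inhibition (inferred from which compounds were picked for retests). Size under these conditions: about 67,000 compounds, about 300 of them at 50% or above in at least one test.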
D: 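Protease assay of ClpP1P2, read by the AMC dye that it sets free. Target: ClpP1P2, Mycobacterium tuberculosis (UniProt P9WPC5 and UniProt P9WPC3). Concentration: 50 µM. Direction is inferred from only a few compounds that gave an IC50; most scored high, so higher reads as stronger inhibition. Most other retested compounds had strongly negative values. Size under these conditions: about 69,000 compounds, about 10 of them at 50% or above in at least one test.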
E: 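Enzyme assay of histidyl-tRNA synthetase; the read-out is not stated. Target: Histidine-tRNA ligase, Trypanosoma cruzi CL Brener (UniProt Q4DA54). Concentration: 30 µM. Direction is inferred from retests: higher values go with stronger inhibition. About 69,000 compounds were tested under these conditions; 0.045% (about 31) showed 50% or more at least once.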

Each number is a percent effect as filed. The controls that fix the scale are not given in the record; negative values are as filed. This is an unselected part of the compounds tested. Two or more numbers in one place are separate tests of the same structure; such repeats can differ widely. A dash means the value is not listed here; it may have been measured.

| # | Compound | A | B | C | D | E |
|---|---|---|---|---|---|---|
| 1 | `COc1ccc(-c2nc(CN3CCCC3Cn3cccn3)no2)cc1` (stereo not drawn) | 1.928 | 17.56 | 0.02933 | -1.741 | 1.527 |
| 2 | `O=C1OCCC1N1CCN(C(=O)Cc2c[nH]c3ccccc23)CC1` (stereo not drawn) | 5.338 | 36.72 | -2.01 | 13.21 | 0.7519 |
| 3 | `CCOCC(=O)N1CC[C@H]2OCC[C@@H](c3nnc(C)o3)[C@H]2C1` | 13.24 | - | 19.15 | 3.447 | -4.598 |
| 4 | `O=C(C1CC=CC1)N1CC[C@@H](O)[C@H]1Cc1cccnc1` | 0 | 14.61 | -13.11 | -10.47 | 3.175 |
| 5 | `CCn1ncc(CN2CCCC(n3c(=O)oc4ccccc43)C2)c1C.Cl` (stereo not drawn) | - | 15.64 | - | - | - |
| 6 | `CCN1CCN(C(=O)C(C)N2CCc3cncnc3C2)CC1` (stereo not drawn) | 3.667 | 11.65 | -13.9 | -7.789 | 5.464 |
| 7 | `CC(Cn1cncn1)NCc1csc2c1CCCC2` (stereo not drawn) | 7.09 | 25.92 | -13.1 | -6.746 | 8.743 |
| 8 | `O=S(=O)(NCC1(O)CCOc2ccccc21)c1cccs1` (stereo not drawn) | -5.757 | -5.012 | -8.32 | -9.034 | 4.959 |
| 9 | `O=C(O)C(F)(F)F.[H][C@@]12CN(c3cccnc3)CC[C@]1([H])CN(c1nccc(C(F)(F)F)n1)C2` | - | -14.33 | - | - | - |
| 10 | `COCCN1C(=O)C2(CCC(C(=O)Nc3ccc(C)cc3)CC2)N=C1C` (stereo not drawn) | 11.67 | -8.478 | -9.214 | -1.456 | -1.604 |
| 11 | `CC(C)(C#N)c1ccccc1CN(CCO)Cc1ccsc1` | 1.772 | -9.511 and 33.2 | -49.02 | -16.94 | 1.22 |
| 12 | `COc1ccc(CN2CCCC(Cn3nc(C)nc3C)C2)cc1F` (stereo not drawn) | 5.222 | 41.69 | -8.207 | -4.873 | 1.128 |
| 13 | `O=C(c1cccc2[nH]ncc12)N1CCCC1c1noc(C2CC2)n1` (stereo not drawn) | 3.856 | 1.932 | -24.28 | 3.826 | 3.008 |
| 14 | `CN(C)Cc1nn(C)c2c1CN(C(=O)Nc1cccc(F)c1)C2` | -5 | 9.335 | -11.7 | 9.231 | 11.23 |
| 15 | `CS(=O)(=O)N1CCC2(CN(C(=O)c3cccnc3)C2)C1` | -4.946 | - | -13.64 | -0.1192 | 3.306 |
| 16 | `CCCC(=O)NCc1ccc(N2CCCCC2)cc1` | 2.885 | 12.38 | -28.85 | 1.785 | 5.063 |
| 17 | `[H][C@]12CCC[C@@]1(COc1cccnc1)CN(C(=O)Cc1ccco1)C2` | - | 27.36 | - | - | - |
| 18 | `c1cnc(NCc2n[nH]c3c2CCN(Cc2ccncc2)C3)nc1` | - | 9.41 | -27.45 | -2.815 | -12.27 |
| 19 | `CCN(CC)CC1CCN(Cc2ccn(C)c(=O)c2)CC1` | -8.579 | 39.75 | -33.2 | -2.513 | 7.692 |
| 20 | `CCOc1ncccc1C(=O)NCCN(CC)C1CC1` | 4.178 | 7.838 | -8.873 | 0.4099 | 5.639 |
| 21 | `OC1(CN2CCC(Oc3cccc(C(F)(F)F)c3)CC2)CNCCOC1` (stereo not drawn) | -16.07 | 78.32 | -7.509 | 6.459 | 9.392 |
| 22 | `[H][C@]12CN(C(=O)c3cc(C)n(C)c3C)CC[C@@]1(O)CCN(S(C)(=O)=O)C2` | - | -12.58 | - | - | - |
| 23 | `[H][C@]12CCC[C@@H](OCc3cccnc3)[C@]1([H])CN(C(=O)c1ccnnc1)C2` | - | -10.99 | - | - | - |
| 24 | `COCc1cc(NCCc2ccc(S(N)(=O)=O)cc2)n2nccc2n1` | 1.139 | 40.38 | -7.599 | -7.116 | 1.22 |
| 25 | `CCN(CCNC(=O)C1CCN(C(C)=O)CC1)c1ccccc1C` | 0.9823 | -5.872 | -7.839 | 2.495 | 5.172 |
| 26 | `CN(C)C(=O)COc1ccccc1CNC1CCc2ncnn2C1` (stereo not drawn) | -0.3241 | 17.11 | -29.03 | 4.338 | 0 |
| 27 | `O=C(O)C(F)(F)F.[H][C@@]12CCN(CC3CCC3)C[C@@]1([H])[C@H](C(=O)NC1CC1)CCO2` | - | 18.9 | - | - | - |
| 28 | `O=C(c1ccsc1)N1CCc2onc(COc3ccccn3)c2C1` | 3.484 | - | 8.321 | 5.259 | 5.747 |
| 29 | `CCC(=O)N1CCN(C(=O)Nc2cccc(N3CCOCC3)c2)CC1` | 2.934 | 6.929 | -13.28 | -14.23 | -2.062 |
| 30 | `c1cc(CN2CCCCC2c2ccc(Nc3cnccn3)nc2)ccn1` (stereo not drawn) | 1.48 | -62.48 | 18.9 | -9.477 | -0.7576 |
| 31 | `COc1ccc2c(c1)CN(C)C(=O)CCN2CC(O)C(C)(C)C` (stereo not drawn) | -1.211 | 1.72 | 4.308 | 9.325 | 3.371 |
| 32 | `CN(C)CCN1CCN(Cc2cccc(C#N)c2)Cc2cccnc21` | -13.09 | - | -8.344 | -15.31 | 2.804 |
| 33 | `O=C(c1cccnc1)N1C[C@@H]2CC[C@H](C1)N(Cc1ncc[nH]1)C2` | 2.772 | - | -11.49 | 7.857 | 2.479 |
| 34 | `Cc1nc(C)n(C2CCCN(C(=O)CCn3cncn3)C2)n1` (stereo not drawn) | 2.792 | 7.415 | -8.619 | -7.342 | -0.4484 |
| 35 | `CNC(=O)CN1CCOCC12CCN(C(=O)c1ccccc1)CC2.O=C(O)C(F)(F)F` | - | 10.48 | - | - | - |
| 36 | `OCCc1ccccc1-n1ccnc1-c1cn(C2CCNCC2)nn1` | 6.535 | -17.07 | 7.139 | -12.94 | -6.14 |
| 37 | `CNC(=O)CN1CCC(NC2CSCCc3ccccc32)CC1` (stereo not drawn) | 4.634 | 34.75 | -35.23 | 0.4989 | 2.597 |
| 38 | `Cc1cnn(CCC(=O)N2CCCC(c3cc(C(N)=O)[nH]n3)C2)c1` (stereo not drawn) | 2.491 | 2.466 | -10.7 | 6.067 | 1.504 |
| 39 | `CC(C)N(Cc1ccc(C#N)cc1)Cc1nnsc1Cl` | - | 12.49 | - | -0.9014 | 6.579 |
| 40 | `N#CCCN(c1ccccc1)S(=O)(=O)CC1CCCCO1` (stereo not drawn) | 3.19 | 26.28 | -30.45 | -0.4734 | 4.902 |
| 41 | `COc1cccc(CN2C[C@H]3CCNCC[C@H]3S2(=O)=O)c1` | -37.42 | - | 8.96 | 13.41 | 4.301 |
| 42 | `NC(=O)CN(C(=O)c1cccc(C(F)(F)F)c1)C1CCCC1` | -4.912 | 11.24 | -3.068 | 1.556 | 8.621 |
| 43 | `CCCc1nc(N(C)CCc2noc(C(C)C)n2)c2cnn(C)c2n1` | 0.6536 | -21.08 | 19.99 | 0.6285 | 0 |
| 44 | `Fc1cccc(O[C@@H]2C[C@H]3CN(Cc4ccncc4)CCN3C2)c1` | 0.2415 | - | -7.672 | 9.627 | 5.806 |
| 45 | `Cc1nc(CN2CCC3(CC2)CC(=O)N(C)c2ccccc23)cs1` | - | - | -11.18 | -1.174 | 11.04 |
| 46 | `CN(C)C(=O)[C@H]1C[C@H]2[C@H](CCN2Cc2ccc3c(c2)OCO3)O1` | 2.941 | - | -4.598 | 9.457 | 7.438 |
| 47 | `Cc1ccc2c(ccn2CC(=O)NC[C@@H]2CCCN3CCCC[C@H]23)c1` | 7.402 | - | -29.44 | 3.829 | 4.918 |
| 48 | `O=C(NCCNc1ccc(C(F)(F)F)cn1)c1ccc(Br)cc1F` | -0.2564 | -32.97 | - | 12.92 | 2.642 |
| 49 | `O=C(O)C(F)(F)F.O=C(O)C(F)(F)F.[H][C@@]12OCCN(Cc3ccc(C)o3)[C@@]1([H])CC[C@@H]2OCc1cccnc1` | - | 19.54 | - | - | - |

The last 3 entries again:

Compound	A	B	C	D	E
Cc1ccc2c(ccn2CC(=O)NC[C@@H]2CCCN3CCCC[C@H]23)c1	7.402	-	-29.44	3.829	4.918
O=C(NCCNc1ccc(C(F)(F)F)cn1)c1ccc(Br)cc1F	-0.2564	-32.97	-	12.92	2.642
O=C(O)C(F)(F)F.O=C(O)C(F)(F)F.[H][C@@]12OCCN(Cc3ccc(C)o3)[C@@]1([H])CC[C@@H]2OCc1cccnc1	-	19.54	-	-	-

Data taken from ChEMBL document CHEMBL3988442, “University of Dundee, Small-Polar-MMV Screening Library” (2021).